In assay [1] the target is endogenous mouse Wt1 (mouse (endogenous in M15 cells, mouse podocyte cell line, mouse glomeruli)) (UniProt P22561). Kind of assay: co-IP; podocyte cell line transfected with V5-tagged Cmip; WT1 immunoprecipitated from extracts, eluates blotted with anti-WT1 or anti-V5.
The target in assay [2] is CMIP expressed in podocytes of transgenic mice (human) (UniProt Q8IY22). Nature of the assay: co-IP; glomerular extracts of wild-type and Tg(+) mice; Cmip immunoprecipitated, eluates blotted with anti-WT1 and anti-CMIP.
Assay [3] concerns the target endogenous mouse Wt1 (mouse (endogenous in M15 cells, mouse podocyte cell line, mouse glomeruli)) (UniProt P22561). Kind of assay: cross-linking + co-IP; M15 cells transfected with mouse Cmip, treated 20 min with 0.5 mM DSP or DMSO; lysis buffer with or without 8 M urea; IP with rabbit anti-WT1 (C-19), washes in RIPA buffer; blot with anti-CMIP and anti-WT1 (F-6).
Assay [4] shares this target. Kind of assay: co-IP; M15 cells (endogenous Wt1) transfected with Cmip expression plasmid or empty vector; lysates immunoprecipitated with anti-WT1 (polyclonal C19), eluates probed with anti-Cmip or anti-WT1 (Mab F6).

Protein sequences, listed by entry. Tags and fused reporters are not part of them.
UniProt P22561: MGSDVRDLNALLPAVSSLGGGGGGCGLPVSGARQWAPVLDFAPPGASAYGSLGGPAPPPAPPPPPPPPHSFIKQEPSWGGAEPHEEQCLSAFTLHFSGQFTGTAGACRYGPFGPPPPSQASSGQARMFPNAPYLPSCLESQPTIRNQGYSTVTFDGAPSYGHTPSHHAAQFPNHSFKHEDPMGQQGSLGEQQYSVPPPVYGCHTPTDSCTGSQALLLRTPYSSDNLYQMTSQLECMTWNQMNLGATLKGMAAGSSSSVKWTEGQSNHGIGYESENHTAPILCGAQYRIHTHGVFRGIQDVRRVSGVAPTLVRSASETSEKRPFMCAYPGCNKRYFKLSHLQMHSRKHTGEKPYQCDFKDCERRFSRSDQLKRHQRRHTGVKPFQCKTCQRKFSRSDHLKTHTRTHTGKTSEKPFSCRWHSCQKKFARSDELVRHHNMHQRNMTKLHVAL
UniProt Q8IY22: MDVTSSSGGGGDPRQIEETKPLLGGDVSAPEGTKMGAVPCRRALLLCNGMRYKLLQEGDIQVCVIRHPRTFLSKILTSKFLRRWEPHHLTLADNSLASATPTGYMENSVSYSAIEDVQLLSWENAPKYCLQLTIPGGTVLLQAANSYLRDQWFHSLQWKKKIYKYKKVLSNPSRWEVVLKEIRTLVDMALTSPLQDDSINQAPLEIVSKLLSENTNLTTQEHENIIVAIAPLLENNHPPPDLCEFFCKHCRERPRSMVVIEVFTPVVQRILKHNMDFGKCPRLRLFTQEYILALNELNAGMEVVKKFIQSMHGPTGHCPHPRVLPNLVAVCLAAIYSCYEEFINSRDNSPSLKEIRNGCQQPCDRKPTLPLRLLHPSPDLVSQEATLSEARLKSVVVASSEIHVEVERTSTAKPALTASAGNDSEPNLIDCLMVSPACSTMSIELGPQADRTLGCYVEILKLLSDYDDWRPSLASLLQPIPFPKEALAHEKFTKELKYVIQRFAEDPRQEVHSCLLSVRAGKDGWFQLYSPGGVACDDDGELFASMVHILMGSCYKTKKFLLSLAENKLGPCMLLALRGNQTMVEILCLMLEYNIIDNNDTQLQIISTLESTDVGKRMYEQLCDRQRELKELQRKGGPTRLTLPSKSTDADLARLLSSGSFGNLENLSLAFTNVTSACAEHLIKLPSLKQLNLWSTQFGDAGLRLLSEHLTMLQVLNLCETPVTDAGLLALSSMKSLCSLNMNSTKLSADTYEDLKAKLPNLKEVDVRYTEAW
UniProt Q9D486: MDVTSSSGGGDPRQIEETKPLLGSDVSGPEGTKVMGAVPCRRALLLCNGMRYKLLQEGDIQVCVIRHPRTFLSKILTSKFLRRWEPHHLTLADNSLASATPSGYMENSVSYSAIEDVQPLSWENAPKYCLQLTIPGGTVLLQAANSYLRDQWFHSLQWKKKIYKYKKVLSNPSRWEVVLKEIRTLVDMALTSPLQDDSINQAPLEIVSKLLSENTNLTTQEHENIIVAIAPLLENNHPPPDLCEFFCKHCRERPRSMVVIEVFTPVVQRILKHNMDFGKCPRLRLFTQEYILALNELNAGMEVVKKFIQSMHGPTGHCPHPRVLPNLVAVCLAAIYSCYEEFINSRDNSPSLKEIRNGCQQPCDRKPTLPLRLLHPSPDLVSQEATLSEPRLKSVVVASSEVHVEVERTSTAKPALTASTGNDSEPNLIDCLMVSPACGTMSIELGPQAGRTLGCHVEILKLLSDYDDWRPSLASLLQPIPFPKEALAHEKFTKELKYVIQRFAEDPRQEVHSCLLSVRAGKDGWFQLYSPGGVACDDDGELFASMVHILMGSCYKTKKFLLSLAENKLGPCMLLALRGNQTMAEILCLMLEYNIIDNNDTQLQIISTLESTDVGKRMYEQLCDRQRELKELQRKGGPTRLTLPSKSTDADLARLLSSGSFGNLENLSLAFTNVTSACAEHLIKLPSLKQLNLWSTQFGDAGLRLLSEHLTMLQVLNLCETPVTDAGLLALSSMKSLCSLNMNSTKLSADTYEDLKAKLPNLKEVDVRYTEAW

No constants are given. Whether binding was seen depends on the method and setting. In cells and extracts the contact can be indirect. Some results given as binding are weak or reduced against the parent protein; the word gives no strength.

Take “V5-tagged Cmip, expressed in a mouse podocyte cell line (from UniProt Q9D486 1-773)”: the binding entry in assay [1] is “binds”.

In the case of “endogenous mouse Wt1 (from UniProt P22561 1-449)”, the binding entry in assay [2] is on record as “binds”.

Turning to “mouse Cmip, expressed in M15 cells (from UniProt Q9D486 1-773)”, the binding result in assay [3] and in assay [4] was “binds” in each case.
